Assay [1] addresses YWHAZ-WT (wild-type YWHAZ, a 14-3-3 protein), 3×HA-tagged (human) (UniProt P63104). The assay can be described thus: co-IP; lysates of MSCs incubated at 4°C overnight with Anti-HA and Anti-FLAG Nanobody Magarose Beads; rinsed with 0.05% Tween 20 in PBS and lysis buffer; western blotting. A general note: In western blotting, separated proteins are transferred to a membrane and probed.

Sequences of proteins named here, by UniProt entry; tags and fusion partners are left off. Residues count along the entry.
UniProt P63104: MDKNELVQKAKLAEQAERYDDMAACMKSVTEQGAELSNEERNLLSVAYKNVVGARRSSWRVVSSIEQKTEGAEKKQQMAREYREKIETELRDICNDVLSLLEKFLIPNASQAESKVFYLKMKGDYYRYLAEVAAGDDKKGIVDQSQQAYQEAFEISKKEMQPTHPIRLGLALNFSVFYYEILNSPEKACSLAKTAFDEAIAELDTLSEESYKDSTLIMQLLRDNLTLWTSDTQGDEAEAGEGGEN
UniProt P31040, residues 43-664: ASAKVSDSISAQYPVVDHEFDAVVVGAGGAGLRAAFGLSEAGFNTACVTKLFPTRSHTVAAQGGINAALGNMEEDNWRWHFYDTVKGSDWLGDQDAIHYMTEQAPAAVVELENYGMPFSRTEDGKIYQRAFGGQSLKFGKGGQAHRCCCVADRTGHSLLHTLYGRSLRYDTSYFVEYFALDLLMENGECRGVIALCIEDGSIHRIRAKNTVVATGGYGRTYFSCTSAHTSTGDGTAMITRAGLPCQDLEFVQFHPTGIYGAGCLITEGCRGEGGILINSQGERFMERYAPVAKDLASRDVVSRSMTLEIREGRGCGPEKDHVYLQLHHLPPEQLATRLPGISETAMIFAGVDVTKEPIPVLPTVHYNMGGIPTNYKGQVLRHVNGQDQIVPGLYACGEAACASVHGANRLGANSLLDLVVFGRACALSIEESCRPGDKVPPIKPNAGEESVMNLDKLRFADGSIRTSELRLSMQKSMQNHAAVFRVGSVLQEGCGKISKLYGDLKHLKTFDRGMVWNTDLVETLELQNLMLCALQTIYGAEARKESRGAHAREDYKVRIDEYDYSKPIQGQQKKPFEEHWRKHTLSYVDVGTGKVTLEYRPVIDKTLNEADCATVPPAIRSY
UniProt Q92830: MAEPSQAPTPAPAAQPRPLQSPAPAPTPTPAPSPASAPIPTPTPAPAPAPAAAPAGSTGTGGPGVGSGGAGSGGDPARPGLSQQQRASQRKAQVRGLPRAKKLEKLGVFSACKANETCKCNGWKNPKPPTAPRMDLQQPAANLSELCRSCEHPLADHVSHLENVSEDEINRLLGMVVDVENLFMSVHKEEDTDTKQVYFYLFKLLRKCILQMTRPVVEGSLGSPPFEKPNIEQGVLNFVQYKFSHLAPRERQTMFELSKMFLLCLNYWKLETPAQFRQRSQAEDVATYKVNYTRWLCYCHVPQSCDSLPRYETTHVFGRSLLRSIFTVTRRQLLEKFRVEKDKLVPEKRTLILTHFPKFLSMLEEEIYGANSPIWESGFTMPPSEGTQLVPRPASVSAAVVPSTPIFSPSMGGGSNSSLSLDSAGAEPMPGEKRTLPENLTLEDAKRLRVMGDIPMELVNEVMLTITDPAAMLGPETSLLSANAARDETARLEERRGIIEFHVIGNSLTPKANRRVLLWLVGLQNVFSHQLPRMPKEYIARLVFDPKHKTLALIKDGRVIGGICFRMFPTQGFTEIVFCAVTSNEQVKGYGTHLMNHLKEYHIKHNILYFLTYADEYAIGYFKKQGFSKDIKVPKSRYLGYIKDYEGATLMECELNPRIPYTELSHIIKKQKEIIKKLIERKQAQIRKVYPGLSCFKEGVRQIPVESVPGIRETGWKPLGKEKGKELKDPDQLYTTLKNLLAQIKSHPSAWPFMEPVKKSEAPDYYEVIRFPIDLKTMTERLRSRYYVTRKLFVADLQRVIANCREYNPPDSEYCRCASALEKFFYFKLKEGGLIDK

The target in assay [2] is YWHAZ-GST recombinant protein (human) (UniProt P63104). Description: pull-down; purified YWHAZ-GST immobilised on Glutathione-Sepharose beads (2 h, 4°C), incubated with SUCLG2 or OXCT1 recombinant protein overnight at 4°C in lysis buffer; immunoblotting; both purified.

Results are given in words; binding and its absence hold for the method and conditions named. For some of these results: In cells and extracts the contact can be indirect. Some results given as binding are weak or reduced against the parent protein; the word gives no strength. For some of these results: Sequences can lack the tags named with a protein.

As for “succinate dehydrogenase (SDHA), EGFP- and 3×FLAG-tagged (from UniProt P31040 43-664) (enzyme)”, in assay [1], the binding result is “no binding”. In the case of “lysine acetyltransferase 2A (KAT2A), FLAG-tagged (from UniProt Q92830 1-837) (enzyme)”, the binding entry in assay [1] is “no binding”.

B1: succinate-CoA ligase GDP-forming subunit beta (SUCLG2), 3×FLAG-tagged (enzyme, UniProt Q96I99 38-432)
chain: LNLQEYQSKKLMSDNGVRVQRFFVADTANEALEAAKRLNAKEIVLKAQILAGGRGKGVFNSGLKGGVHLTKDPNVVGQLAKQMIGYNLATKQTPKEGVKVNKVMVAEALDISRETYLAILMDRSCNGPVLVGSPQGGVDIEEVAASNPELIFKEQIDIFEGIKDSQAQRMAENLGFVGPLKSQAADQITKLYNLFLKIDATQVEVNPFGETPEGQVVCFDAKINFDDNAEFRQKDIFAMDDKSENEPIENEAAKYDLKYIGLDGNIACFVNGAGLAMATCDIIFLNGGKPANFLDLGGGVKEAQVYQAFKLLTADPKVEAILVNIFGGIVNCAIIANGITKACRELELKVPLVVRLEGTNVQEAQKILNNSGLPITSAIDLEDAAKKAVASVAKK
As to B1, in assay [1], the binding entry is reported as “binds”.

B2: SUCLG2 recombinant protein (enzyme, UniProt Q96I99 38-432)
chain: B1 chain
Turning to B2, the binding entry in assay [2] is “binds”.
